From PubChem BioAssay AID504523 (Broad Institute, 2011)
Out of some 340,000 compounds screened, about 490 (0.14%) were called active. The inconclusive results got no clear call from the source; some entries with a clear call stand among them for comparison. No stated cut-off is given here; in the data, active means inhibition above about 12%; inconclusive means no clear call, values can overlap the other calls; inactive means below about 7.3%.

Chains of the proteins cited; added tags and fusions are not shown.
UniProt Q14145, whole entry, looked up: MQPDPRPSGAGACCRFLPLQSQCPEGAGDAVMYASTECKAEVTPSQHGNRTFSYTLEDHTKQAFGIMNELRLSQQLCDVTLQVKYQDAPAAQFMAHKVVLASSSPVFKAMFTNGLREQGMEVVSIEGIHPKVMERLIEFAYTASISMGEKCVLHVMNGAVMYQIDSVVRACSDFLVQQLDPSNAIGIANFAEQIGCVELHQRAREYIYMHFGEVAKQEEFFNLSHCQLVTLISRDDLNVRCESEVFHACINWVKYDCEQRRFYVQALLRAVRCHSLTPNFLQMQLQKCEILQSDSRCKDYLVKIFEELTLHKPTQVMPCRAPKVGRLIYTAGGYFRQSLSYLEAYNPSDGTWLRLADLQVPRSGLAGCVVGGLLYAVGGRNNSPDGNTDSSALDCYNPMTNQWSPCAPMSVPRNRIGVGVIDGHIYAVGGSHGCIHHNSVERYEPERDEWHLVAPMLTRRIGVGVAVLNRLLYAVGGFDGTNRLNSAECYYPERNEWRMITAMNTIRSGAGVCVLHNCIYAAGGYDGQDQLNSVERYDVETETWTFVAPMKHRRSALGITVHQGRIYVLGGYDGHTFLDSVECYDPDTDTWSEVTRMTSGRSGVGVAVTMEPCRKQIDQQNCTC

Biological target: Kelch-like ECH-associated protein 1 (Homo sapiens) (UniProt Q14145)
Assay: disruptors of Keap1 binding to Nrf2 – biochemical, fluorescence polarization, single point, primary screen (AID 504523);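 further: human Keap1 Kelch domain with fluorescein labeled Nrf2 9mer peptide probe; 0% = neutral control wells and 100% = peptide positive control; higher means more block of Keap1 binding to Nrf2 peptide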
Conditions: Keap1 Kelch-Nrf2 peptide fluorescence polarization, 1536-well; at 9.4 µM; hits give high values

| Compound | inhibition |
| --- | --- |
| O=C(NC(NC1CCS(=O)(=O)C1)C(Cl)(Cl)Cl)c1ccc(Br)cc1 (stereo not drawn) | inconclusive: 9.3% |
| COc1ccccc1NS(=O)(=O)c1cc(NC(=O)CN2C(=O)NC3(CCCC3)C2=O)ccc1C | inactive: 1.22% |
| Oc1cc(Nc2cccnc2)cc2cccnc12 | inactive: 1.89% |
| COc1cc(N2CCCC2)c(OC)cc1/C=C(/C#N)c1ccc(F)cc1 | inactive: -3.03% |
| COc1cc(C)c(-c2[nH]ncc2-c2csc(C)n2)c(O)c1 | inconclusive: 10.5% |
| CCCCN(C(=O)CC1CCCCC1)c1c(N)n(CC(C)C)c(=O)[nH]c1=O | active: 49.8% |
| COc1cc(/C=C/C(=O)OCC(=O)c2ccc3c(c2)NC(=O)CO3)ccc1OC(F)F | active: 21.1% |
| CN(C)c1ccc(/C=N/NC2=NS(=O)(=O)c3ccccc32)cc1 | inactive: 4.04% |
| CCOc1ccc(S(=O)(=O)N/N=C(\C)Cc2ccc(OC)cc2)cc1 | inconclusive: 11.2% |
| O=C(CSc1oc(-c2ccc(F)cc2)nc1S(=O)(=O)c1ccc(F)cc1)NCC1CCCO1 (stereo not drawn) | inconclusive: 8.35% |
| Cc1ccc(Cl)cc1N1CCN(Cc2cc(=O)n3ccsc3n2)CC1 | inconclusive: 11.1% |
| Cc1cc2c(NCCc3ccccc3)ncnc2s1 | inconclusive: 10.2% |
| Cc1ccsc1/C=C/c1ccc2cccc(O)c2n1 | inactive: -3.54% |
| O=C(CSC1=NNC(c2ccccn2)S1)Nc1cccc(Cl)c1 (stereo not drawn) | active: 18.9% |
| CCC(C)[C@H](N)C(=O)NC[C@H]1CC[C@H](C(=O)N[C@@H](Cc2ccccc2)C(=O)O)CC1 (stereo partly drawn) | inconclusive: 6.15% |
| Cc1cc(C)n(CCC(=O)N/N=C/c2c(O)ccc3ccccc23)n1 | inconclusive: 7.61% |
| CC(C)OC(=O)C(C#N)c1nc2ccccc2nc1N1CCN(Cc2ccccc2)CC1 (stereo not drawn) | inconclusive: 11.8% |
| CCn1cc(C(=O)N(CCC(C)C)c2c(N)n(Cc3ccccc3)c(=O)[nH]c2=O)c(=O)c2ccc(C)nc21 | inconclusive: 11.1% |
| N=c1c(S(=O)(=O)c2ccc(Cl)cc2)cc2c(=O)n3ccccc3nc2n1C1CCCC1 | inconclusive: 10.1% |
| Nc1ccc2nc3c(=O)[nH]c(=S)[nH]c3nc2c1 | active: 39% |

Shown tab-delimited: 3 of the compounds above.
Compound	inhibition
CCOc1ccc(S(=O)(=O)N/N=C(\C)Cc2ccc(OC)cc2)cc1	inconclusive: 11.2%
Cc1ccsc1/C=C/c1ccc2cccc(O)c2n1	inactive: -3.54%
Nc1ccc2nc3c(=O)[nH]c(=S)[nH]c3nc2c1	active: 39%

(list continues)

| Compound | inhibition |
| --- | --- |
| COc1cccc(NC(=O)CN(C)CC(=O)NCc2ccco2)c1 | active: 24% |
| CCOC(=O)NC(=O)/C(C#N)=C\Nc1sccc1C(=O)OC | inconclusive: 10.6% |
| Cc1ccc(Cl)c2c(N=Nc3ccccc3)c(O)[nH]c12 | inconclusive: 6.67% |
| O=C1CC(c2ccco2)CC(O)=C1C=Nc1cc(Cl)ccc1O (stereo not drawn) | inactive: -7.45% |
| O=C(NCCS(=O)(=O)NC1CCCCC1)c1ccccc1 | inconclusive: 11.1% |
| CCOC(=O)c1ccc(-n2c(N)c(C(=O)NCc3ccco3)sc2=S)cc1 | inactive: 4.52% |
| O=C(COc1ccc(F)cc1)c1ccc2c(c1)CCCC2 | inconclusive: 8.56% |
| Cc1ccc(NC(=O)CN(c2ccc(Cl)cc2)S(=O)(=O)c2cc([N+](=O)[O-])ccc2Cl)c(C)c1 | inconclusive: 8.88% |
| Clc1cc(Cl)c(Cl)c(Cl)c1Cl | inconclusive: 10.2% |
| COc1cccc(CNS(=O)(=O)c2c(C(=O)N3CCCC3)c(C)n(C)c2C)c1 | inactive: 0.562% |
| Cc1ccccc1OCC(=O)N/N=C/c1ccccn1 | inactive: -1.78% |
| O=C(CCc1ccccc1)NNc1ccc(F)cc1 | active: 12.6% |
| COc1ccc(Cl)cc1NC(=O)C/C(C)=N/NC(=O)C(=O)NCc1ccccc1 | inactive: -3.69% |
| CCC1CCCCN1CCNC(=O)CCS(=O)(=O)c1ccc(Br)cc1 (stereo not drawn) | inconclusive: 6.84% |
| O=C(CC(O)(c1ccccc1)C(F)(F)F)c1cccs1 (stereo not drawn) | inconclusive: 10.5% |
| COc1ccc(C2C(C(=O)c3cccs3)=C(O)C(=O)N2c2nnc(C)s2)cc1OC (stereo not drawn) | inconclusive: 10.6% |
| COc1ccc(-c2c(C#N)c(C)nc3c2C(=O)c2ccccc2-3)cc1 | inconclusive: 5.07% |
| CC(NS(=O)(=O)c1cccc(C(=O)NCc2ccncc2)c1)c1ccccc1 (stereo not drawn) | inactive: 0.183% |
| O=C(c1ccccc1)N(Cc1cccs1)C1CCS(=O)(=O)C1 (stereo not drawn) | inconclusive: 9.11% |
| O=C(COC(=O)c1ccco1)Nc1nc2c(F)c(F)c(F)cc2s1 | inactive: -7.59% |

| Compound | inhibition |
| --- | --- |
| Cc1cc(N2C(=O)CCC2=O)n(-c2ccccc2)n1 | inconclusive: 8.97% |
| Nc1cccc2c(O)cc(S(=O)(=O)O)cc12 | inconclusive: 10.9% |
| C=CCn1c(=O)/c(=C/c2ccsc2)s/c1=C(\C#N)C(=O)NCCN1CCOCC1 | active: 13.2% |
| COc1cccc(/C=N/Nc2ccc(S(=O)(=O)Nc3ccccc3C(=O)O)cc2[N+](=O)[O-])c1O | inconclusive: 9.55% |
| Cc1ccccc1[C@@]1(C)ON(c2ccccc2C(F)(F)F)C1=O | inactive: -7.66% |
| CCOC(=O)c1ccc(S(=O)(=O)Nc2cc(S(=O)(=O)Nc3ccc(OC)cc3)ccc2O)cc1 | inconclusive: 9.26% |
| Cn1c(=O)[nH]c2cc(Cl)cnc21 | inconclusive: 10.4% |
| COc1cccc(CNC(=O)c2cccc(S(=O)(=O)N3CCN(c4ccc(F)cc4)CC3)c2)c1 | inactive: 1.77% |
| O=C1C=C(O)c2c(O)cc(O)c(O)c2C1=O | active: 19.2% |
| CCOC(=O)C1CCN(C(=O)c2ccc(N3CCOCC3)c([N+](=O)[O-])c2)CC1 | inconclusive: 4.47% |
| COc1ccc(/C=C/C(=O)NCC(c2ccc(F)cc2)N2CCOCC2)cc1OC (stereo not drawn) | inconclusive: 4.85% |
| NC(=S)Nc1ncc(C(F)(F)F)cc1Cl | inactive: 0.346% |
| COC(=O)c1cc(S(=O)(=O)N2CCCC(C)C2)c[nH]1 (stereo not drawn) | inactive: 0.405% |
| Cc1cc(N2CCOCC2)nc(SCC(=O)OCc2ccccc2)n1 | inconclusive: 11% |
| COc1ccc(/C=C2\N=C(C)N(c3ccc4ccccc4c3)C2=O)cc1OC | inconclusive: 9.41% |
| O=C(NC1CCN(c2ncccn2)CC1)c1c(F)cccc1F | inactive: -6.44% |
| COc1ccc(Nc2nc3ccccc3nc2-n2nc(C)cc2C)cc1 | active: 42.6% |
| CN(C)CCNc1ccc2ncn3c4ccc(O)cc4c(=O)c1c23 | active: 37.6% |
